The source of these data is patent publication US9125406B2, “Methods and compositions for control of cabbage looper, trichoplusia ni” (Simon Fraser University, priority 2008, dated 2015).

The series deals with third instar T. ni larvae. The series can be described thus: Leaf disk choice feeding deterrence bioassay. The format is in vivo, Trichoplusia ni. As to conditions: ratio of % deterrence to DC50 × % mortality; average used for ranges, 0.1 used for mortality ≤0. The source says: Cabbage plants (Brassica oleraceae var. Stonehead) used in the bioassays were routinely grown in plastic pots with a mixture of sandy loam soil and peat moss (4:1) in a greenhouse at the University of British Columbia, Vancouver, BC, Canada. Leaves were collected from cabbage plants that were 5-6 weeks old.
T. ni larvae and moths were obtained from a long established colony (>50 generations) maintained on an artificial diet, Velvetbean Caterpillar Diet No. F9796 [Bio-Sery Inc. (Frenchtown, NIL)] in the insectary of the University of British Columbia (UBC).
Initial screening for feeding deterrent effects was conducted at 50 μg/cm^2 in feeding deterrent bioassays.
Larvae were given the choice of feeding on two leaf disks, one treated with 10 μL of a solution of the test substance painted on each side and the other treated with a carrier solvent alone. The number of larvae was 25 per treatment.
Feeding deterrence data (percent) for initial screening concentration were analyzed by analysis of variance (ANOVA) after arcsin transformation using statistics software (Statistix 7. Analytical Software, Statistix 7 for Windows 95, 98, NT, 2000. Analytical Software, Tallahassee).
Consider `CCCCOc1ccccc1OCCC` [3a{3, 4}, 1-propoxy-2-butoxybenzene], for which the “Index = FD/(DC50 × mortality)” value came to 0.25.

Take `C=CCOc1ccccc1OCCC` [3a{3, 6}, 1-allyloxy-2-propoxybenzene]: the “Index = FD/(DC50 × mortality)” value is 0.5.

For the molecule `C=CCOc1ccccc1OCCCC` [3a{4, 6}, 1-allyloxy-2-butoxybenzene], the “Index = FD/(DC50 × mortality)” value was determined as 0.3.

Turning to `CCOc1cccc(OCC)c1` [3b{2,2}, 1,3-Diethoxy benzene], the “Index = FD/(DC50 × mortality)” value is reported as 0.08.

Consider `CCCOc1cccc(OCCC)c1` [3b{3,3}, 1,3-Dipropoxy benzene], for which the “Index = FD/(DC50 × mortality)” value is listed as 0.05.

Consider `CCCOc1cccc(OCCC(C)C)c1` [3b{3, 5}, 3-propoxy-1-isopentoxybenzene], for which the “Index = FD/(DC50 × mortality)” value is given as 0.6.

With `C=CCOc1cccc(OCC=C)c1` [3b{6, 6}, 1,3-Diallyloxy benzene], the “Index = FD/(DC50 × mortality)” value worked out at 0.4.

For `CCOc1ccc(OCC)cc1` [3c{2, 2}, 1,4-Diethoxy benzene], the “Index = FD/(DC50 × mortality)” value is 0.03.

Turning to `CCCOc1ccc(OCC)cc1` [3c{2, 3}, 4-ethoxy-1-propoxybenzene], the “Index = FD/(DC50 × mortality)” value came out at 0.18.

`CCCOc1ccc(OCCC)cc1` [3c{3,3}, 1,4-Dipropoxy benzene]: the “Index = FD/(DC50 × mortality)” value is given as 0.2.

With `C=CCOc1ccc(OCCC)cc1` [3c{3, 6}, 1-allyloxy-4-propoxybenzene], the “Index = FD/(DC50 × mortality)” value came to 2000.

For `C=CCOc1ccc(OCC=C)cc1` [3c{6,6}, 1,4-Diallyloxy benzene], the “Index = FD/(DC50 × mortality)” value is on record as 0.25.

As to `C=CCc1cc(OC)ccc1OC` [5c{1, 1}, 1,4-dimethoxy-2-allyl-benzene], the “Index = FD/(DC50 × mortality)” value stood at 0.1.

Consider `C=CCc1cc(OCCC)ccc1OC` [5c{3, 1}, 1-methoxy-2-allyl-4-propoxy-benzene], for which the “Index = FD/(DC50 × mortality)” value is listed as 1.7.
